According to PubChem BioAssay AID1347426 (Functional Genomics Laboratory (NCATS/FGL), 2020):
The campaign covered roughly 31,000 sequences. About 1,400 (4.5%) were called active.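 How the source made its calls: active means median seed-adjusted z-score above 1 or below -1; inactive means the rest.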 The list shows a part of the results.

Experiment: Novel Modifiers of Survival Motor Neuron (SMN) Protein: Gene Identification via Genome-wide siRNA Screen;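 further: luminescence tracks full-length SMN protein made from the SMN2 reporter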
Settings: HEK293T SMN2-luciferase reporter, siRNA knockdown, 72 h; actives lie on both sides
In short: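 siRNA screen, 10418 genes ×3 siRNAs; 1 pmol/well, lipid reverse transfection into HEK293T SMN2-luc reporter line. 72 h, 37 °C, 5% CO2; ONE-Glo readout. Data: neg-ctrl normalized, log10, MAD; hit = MAD >1.0 or < -1.0.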

Row | Sequence | median seed-adjusted z-score
1 | GCUUGGUUAUCUCCAUUUUTT against PIGH | inactive: -0.327
2 | GUACCUUUUCCAAACCAAATT against SETD8 | active: -1.52
3 | AGACUUUGGUUUACAUACATT against ATG4B | inactive: -0.703
4 | GCAUUUUCCGCCUACCACATT against POLM | active: -1.55
5 | GCACAGAAUUCUCCACCCATT against PHYHD1 | inactive: -0.37
6 | CAAUAUCUCUGGUAUUGAATT against BTF3 | inactive: 0.0468
7 | GCACUGCUCUUGAUGAUCATT against SLC6A16 | inactive: -0.461
8 | CAUUGUCAAAGGUCAACAATT against EPS15 | inactive: -0.478
9 | CCACAACCAAUGCAUGUGATT against KRT33A | inactive: -0.107
10 | GCAAGGUACUCGAUUCAAATT against TINAG | inactive: 0.374
11 | GGACAAUCAGUUAACAUCATT against SHOC2 | inactive: -0.403
12 | GGGUAAAGUUGUGGAAUUATT against KIF21B | inactive: 0.934
13 | CUGUCUCAAUACAAGAACATT against SLC28A2 | inactive: -0.076
14 | GAAUCAAGUGAGCCCAGGATT against PILRA | inactive: 0.0834
15 | CACUAUCUCCCGGAUCACATT against LDB3 | inactive: 0
16 | GACCCGCGAUUAAACCUCATT against CHST1 | inactive: 0.181
17 | GUUAUUAAAGGAUAACUAUTT against SLC2A3 | inactive: -0.277
18 | GCAUAAACACUUCACGGAATT against SRPK2 | inactive: 0.654
19 | CUGCGAUUGUUUAUAUGCATT against CCNT2 | inactive: -0.836
20 | GGGUUCACCUAAUAGUGCATT against OPCML | inactive: -0.282
21 | GAGACACUUUUGCGAAGUATT against UBE3C | inactive: 0.0341
22 | GCACCGACAUCACUAAACATT against DDX25 | inactive: 0
23 | GCCUACAAUUGGACCCAGATT against EPX | inactive: 0.159

Row | Sequence | median seed-adjusted z-score
24 | CCACACUGGUUAAUGAAGATT against YSK4 | inactive: -0.181
25 | GACUAUUCCUGAUCCUUAUTT against AGBL2 | inactive: -0.796
26 | GCCUCAUCGAGAUCGGGAATT against ADAMTS2 | inactive: -0.338
27 | CGGUUUCACAGGUUGGACATT against RAB7L1 | inactive: 0.243
28 | GUUCUAACCUUAUCCAACATT against ZNF34 | inactive: 0.0391
29 | CCGUCGAUCACUAUCCAAATT against RECK | inactive: -0.000321
30 | CAAGAUACCUGGGUCAUGATT against PREX2 | inactive: -0.0625
31 | AGACCAUCCCUAACGGAUATT against PRELP | inactive: -0.0579
32 | GAAGAACGGAGGAUAUAUUTT against NPAS3 | inactive: -0.0316
33 | CCAAGGAGUCGUCUACUUUTT against B3GAT3 | inactive: -0.00603
34 | GGCUAGAAAUAUUGCGAUUTT against DOCK9 | inactive: 0.61
35 | CUGUCUCGCUUGUCAUAUATT against POLR3B | inactive: -0.151
36 | AGAUCGAGACGCUCACGCUTT against BHLHA15 | inactive: -0.199
37 | GGGACUCUGUAUUCCCUCUTT against WFDC2 | inactive: -0.466
38 | CUACGGCUACGUCUACAUCTT against GPR25 | inactive: 0.377
39 | GAUGCAUCAUCUGAAUAAATT against CPA6 | inactive: 0.343
40 | AGUUUGAUGUUAUCAAUCUTT against PRKAG1 | inactive: 0.431
41 | CAUCCUCGUUGUGAAUUUATT against SGCG | inactive: 0.886
42 | AGUCCUCGGUGAUGCGUGATT against LMNB2 | inactive: -0.15
43 | GCUCUCAUAUCAUUCCAUUTT against PPIL5 | inactive: 0
44 | GAGAUGUUCCAGACCUUUUTT against DNAJC27 | inactive: 0.252
45 | GUGUUAACCCUGAUCUUCUTT against GPT | inactive: -0.00224
46 | GAACCGAGACGAACUGAAUTT against TBXAS1 | inactive: 0

Row | Sequence | median seed-adjusted z-score
47 | GGAUAGGAGAUCAUAGUCATT against RAPGEF6 | inactive: -0.186
48 | CGCGGACUGCGCUUACAAATT against ISLR2 | inactive: 0.263
49 | GAGGUGAACUGGAAGCGAATT against MBOAT1 | active: -1.22
50 | GCCGAAACCUCAUGAGUUATT against EDEM1 | inactive: -0.175
51 | GGACUAAUGCUAAGGUUAUTT against ABCA6 | inactive: 0.113
52 | GAUUCUGGAGAGUACGUAUTT against IGSF10 | inactive: -0.0992
53 | GAAGAAUGCCGCUUUGAAATT against MGAT2 | inactive: -0.124
54 | GCUUAUUGUUCCGAAUGUATT against AP3B1 | inactive: 0.31
55 | GAGAUGAAACGGUCUCGAATT against ARHGEF11 | inactive: -0.525
56 | CAAGCAUCCUAAUCUGGUATT against ABL2 | inactive: 0.293
57 | CCAUGAUUCUCGCAUCCAUTT against 10-Sep | inactive: 0.571
58 | GAGAUGAACUCAACAUGAUTT against CATSPER4 | inactive: -0.669
59 | GGUUAGACAUCAGUCCUUUTT against DHX15 | active: 1.36
60 | GGUCAUUAUUGGUGAGCAATT against HARS2 | inactive: 0
61 | CAGUCCUGAUUGCAUCAUATT against LDHB | inactive: -0.515
62 | UGGUUGUAUCAACUAUGAATT against MYL6 | inactive: -0.228
63 | GCAUCUACUUUGCCGGCGATT against IL4I1 | inactive: -0.441
64 | GCCCAGCACCUACUUGUAATT against ENTPD2 | inactive: 0.0319
65 | GGAUAAGAGCUGUCCUAGATT against EDEM3 | inactive: 0.119
66 | GCAUGAAGCCUGCAUUCUUTT against TBX21 | inactive: -0.454
67 | CAACAGACCUAGAACAGGATT against KRT23 | inactive: -0.0696
68 | GGCUGUUGAACUUCAGUUATT against EMR2 | inactive: 0.0569

Shown tab-delimited: entries from further up.
Row	Sequence	median seed-adjusted z-score
53	GAAGAAUGCCGCUUUGAAATT against MGAT2	inactive: -0.124
54	GCUUAUUGUUCCGAAUGUATT against AP3B1	inactive: 0.31
